{"source": "patent US8110565B2", "about": "“Enhanced drug delivery in transdermal systems” (Noven Pharmaceuticals, Inc., priority 2001, dated 2012)", "origin": "cited, not measured here", "conditions": "parenteral administration; cited from earlier work", "note": "Some of these results come from one statement about several compounds together.", "data": [{"smiles": "CCCCCCCCCC(=O)OC1(c2ccc(Cl)cc2)CCN(CCCC(=O)c2ccc(F)cc2)CC1", "note": "[haloperidol decanoate]", "values": [{"measurement": "therapeutic levels of parent drug sustained", "value": "2-4 weeks"}]}]}
